No constants are given. Whether binding was seen depends on the method and setting. In cells and extracts the contact can be indirect. Binding can be weak; no strength is given. For some assays here: Tags and fused reporters may be left off the sequences shown.
Legend:
[1] = target: T1, YN-Pi04089 (Phytophthora infestans) (UniProt D0N0I9); assay: split reporter
T1 sequence: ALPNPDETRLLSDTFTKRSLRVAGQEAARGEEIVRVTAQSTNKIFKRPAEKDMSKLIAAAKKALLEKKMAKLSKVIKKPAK

[2] = target: T2, GFP-Pi04089 (Phytophthora infestans) (UniProt D0N0I9); assay: co-IP
T2 sequence: T1 sequence

With YC-StKRBP1 (Solanum tuberosum) the binding [1] was “binds”.
For cMyc-StKRBP1 (Solanum tuberosum), the binding [2] was “binds”.

Reference: PMC4560694
